These are yes or no findings as the source states them, for the method shown. In cells and extracts the contact can be indirect. A result given as binding can be weak or reduced; the word gives no strength.

The assay has as its target AKT (human (endogenous in MCF7 and MDA-MB-231)). As to the kind of experiment: co-IP; competitive co-IP: lysates of stably transfected MCF7 and MDA-MB-231 cells with or without TC2N overexpression, IP with AKT or EBP1 antibodies, WB with EBP1 or AKT antibodies; normal IgG as negative control.

B1: EBP1 (protein, UniProt Q9UQ80 1-394)
chain: MSGEDEQQEQTIAEDLVVTKYKMGGDIANRVLRSLVEASSSGVSVLSLCEKGDAMIMEETGKIFKKEKEMKKGIAFPTSISVNNCVCHFSPLKSDQDYILKEGDLVKIDLGVHVDGFIANVAHTFVVDVAQGTQVTGRKADVIKAAHLCAEAALRLVKPGNQNTQVTEAWNKVAHSFNCTPIEGMLSHQLKQHVIDGEKTIIQNPTDQQKKDHEKAEFEVHEVYAVDVLVSSGEGKAKDAGQRTTIYKRDPSKQYGLKMKTSRAFFSEVERRFDAMPFTLRAFEDEKKARMGVVECAKHELLQPFNVLYEKEGEFVAQFKFTVLLMPNGPMRITSGPFEPDLYKSEMEVQDAELKALLQSSASRKTQKKKKKKASKTAENATSGETLEENEAGD
With B1, the binding entry is given as “binds”.

Values taken from publication PMC6541591.
